The target of this test is FSFG-K, M-Nsp1(274–397)-LEHHHHHH (S. cerevisiae). The experiment in a line: NMR 15N R2 relaxation; 140 μM 15N-labeled FSFG-K in buffer A with BSA 205 mg/ml, 25°C; both purified.

Amino acid sequences for entries named in this document (tags omitted). Residues count along the entry.
UniProt P02769, residues 25-607: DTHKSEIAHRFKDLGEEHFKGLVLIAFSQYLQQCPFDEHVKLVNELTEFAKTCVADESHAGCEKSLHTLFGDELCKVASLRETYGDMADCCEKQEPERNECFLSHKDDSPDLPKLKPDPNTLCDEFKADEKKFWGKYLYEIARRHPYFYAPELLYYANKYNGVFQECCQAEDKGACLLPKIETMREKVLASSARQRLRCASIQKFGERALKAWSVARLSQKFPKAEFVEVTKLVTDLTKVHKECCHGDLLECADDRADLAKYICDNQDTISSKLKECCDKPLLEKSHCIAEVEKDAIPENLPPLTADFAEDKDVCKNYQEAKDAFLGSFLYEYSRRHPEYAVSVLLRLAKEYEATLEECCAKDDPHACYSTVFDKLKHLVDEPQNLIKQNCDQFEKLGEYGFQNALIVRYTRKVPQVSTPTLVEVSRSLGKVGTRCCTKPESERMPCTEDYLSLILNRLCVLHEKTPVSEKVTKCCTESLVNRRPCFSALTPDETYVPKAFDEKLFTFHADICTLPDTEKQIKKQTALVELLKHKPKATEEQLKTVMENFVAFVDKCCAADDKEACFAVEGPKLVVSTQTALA

Results are given in words; binding and its absence hold for the method and conditions named. Some binding calls cover weakened binding; strength is not graded here.

As for “Bovine Serum Albumin (from UniProt P02769 25-607)”, the binding entry is given as “binds weakly”.
